One sequence from publication PMC5996148 can be followed below.

By UniProt entry, the sequences of proteins in these tests, tags left out. Where a name states a change or a piece, a line headed by the entry shows the natural chain unless it says otherwise.
UniProt Q96JL9: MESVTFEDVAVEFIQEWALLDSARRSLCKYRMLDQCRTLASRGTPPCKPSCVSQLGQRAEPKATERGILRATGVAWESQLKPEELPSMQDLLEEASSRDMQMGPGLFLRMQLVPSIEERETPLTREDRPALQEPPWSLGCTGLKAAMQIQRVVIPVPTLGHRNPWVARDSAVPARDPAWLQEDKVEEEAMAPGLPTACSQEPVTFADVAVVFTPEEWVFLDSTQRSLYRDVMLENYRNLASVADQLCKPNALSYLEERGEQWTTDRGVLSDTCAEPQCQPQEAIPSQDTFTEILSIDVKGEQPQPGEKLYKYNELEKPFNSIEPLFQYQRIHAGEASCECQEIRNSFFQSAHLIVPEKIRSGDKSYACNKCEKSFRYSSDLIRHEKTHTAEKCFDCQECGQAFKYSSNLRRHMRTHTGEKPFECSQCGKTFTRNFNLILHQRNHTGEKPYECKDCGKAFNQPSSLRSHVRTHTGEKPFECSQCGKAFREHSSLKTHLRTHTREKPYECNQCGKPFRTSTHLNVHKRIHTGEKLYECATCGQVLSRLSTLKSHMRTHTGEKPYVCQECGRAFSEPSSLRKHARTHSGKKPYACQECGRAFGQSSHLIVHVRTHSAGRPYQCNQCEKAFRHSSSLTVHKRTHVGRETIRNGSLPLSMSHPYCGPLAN
UniProt Q8TF39: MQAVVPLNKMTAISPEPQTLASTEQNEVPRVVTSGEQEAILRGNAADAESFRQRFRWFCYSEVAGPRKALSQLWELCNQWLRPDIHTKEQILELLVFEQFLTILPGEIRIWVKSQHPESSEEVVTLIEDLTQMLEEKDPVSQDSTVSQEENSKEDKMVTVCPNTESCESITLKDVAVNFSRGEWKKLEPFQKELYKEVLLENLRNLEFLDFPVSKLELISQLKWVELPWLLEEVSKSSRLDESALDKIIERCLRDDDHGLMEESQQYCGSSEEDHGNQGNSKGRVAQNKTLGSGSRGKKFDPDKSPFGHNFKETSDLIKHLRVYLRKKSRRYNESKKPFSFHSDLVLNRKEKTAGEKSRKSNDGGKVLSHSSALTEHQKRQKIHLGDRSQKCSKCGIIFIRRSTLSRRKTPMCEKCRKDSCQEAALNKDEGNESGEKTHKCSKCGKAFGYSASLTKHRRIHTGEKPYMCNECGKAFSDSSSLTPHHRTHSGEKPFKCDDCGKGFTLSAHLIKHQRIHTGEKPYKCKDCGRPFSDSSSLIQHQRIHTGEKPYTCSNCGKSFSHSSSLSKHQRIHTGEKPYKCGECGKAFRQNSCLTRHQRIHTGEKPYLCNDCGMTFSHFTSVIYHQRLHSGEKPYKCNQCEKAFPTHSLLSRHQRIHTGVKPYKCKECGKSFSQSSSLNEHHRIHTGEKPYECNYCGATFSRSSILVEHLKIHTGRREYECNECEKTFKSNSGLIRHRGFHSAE

Among the test systems are ZBTB25 (human); ZBTB8OS (human); ZMYM6 (human); ZNF174 (human); ZNF3 (human); ZNF616 (human); ZNF695 (human); ZNF718 (human); ZNF765 (human); ZSCAN18 (human).
Holding throughout (assay): protein microarray (ProtoArray v5.0), streptavidin-Alexa Fluor 647
Holding throughout (details): 3'-biotin; 20 mM Tris (pH 7.5), 5 mM MgCl2, 100 mM KCl, 0.1% Tween-20, A/T-rich and random oligonucleotide blockers; temperature not stated; high values mean tight binding

The next test addresses ZNF333 (UniProt Q96JL9).
A further test has as its target ZNF483 (UniProt Q8TF39).
In the next test the target is T1, ZW10 (UniProt O43264).
T1 sequence: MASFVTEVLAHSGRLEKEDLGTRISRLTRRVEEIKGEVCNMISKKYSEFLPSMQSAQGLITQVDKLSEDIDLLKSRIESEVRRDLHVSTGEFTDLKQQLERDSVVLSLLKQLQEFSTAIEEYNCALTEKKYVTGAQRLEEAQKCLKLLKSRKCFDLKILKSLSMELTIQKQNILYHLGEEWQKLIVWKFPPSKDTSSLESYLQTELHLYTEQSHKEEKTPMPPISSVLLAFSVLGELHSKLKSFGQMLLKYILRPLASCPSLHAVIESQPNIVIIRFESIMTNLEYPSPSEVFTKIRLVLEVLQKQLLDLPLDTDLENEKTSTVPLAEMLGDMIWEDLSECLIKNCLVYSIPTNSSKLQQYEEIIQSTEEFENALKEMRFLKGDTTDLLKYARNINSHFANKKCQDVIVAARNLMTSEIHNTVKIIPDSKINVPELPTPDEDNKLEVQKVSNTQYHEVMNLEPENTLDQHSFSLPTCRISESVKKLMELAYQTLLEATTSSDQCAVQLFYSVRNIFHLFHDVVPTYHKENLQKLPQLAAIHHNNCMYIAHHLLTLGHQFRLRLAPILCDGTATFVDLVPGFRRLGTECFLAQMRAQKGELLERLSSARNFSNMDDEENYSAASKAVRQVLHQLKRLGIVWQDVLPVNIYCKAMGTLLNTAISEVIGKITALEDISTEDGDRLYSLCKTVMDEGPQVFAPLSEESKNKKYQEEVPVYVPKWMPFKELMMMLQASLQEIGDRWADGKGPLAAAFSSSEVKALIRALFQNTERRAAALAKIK

In the next test the target is T2, ZWINT (UniProt O95229).
T2 sequence: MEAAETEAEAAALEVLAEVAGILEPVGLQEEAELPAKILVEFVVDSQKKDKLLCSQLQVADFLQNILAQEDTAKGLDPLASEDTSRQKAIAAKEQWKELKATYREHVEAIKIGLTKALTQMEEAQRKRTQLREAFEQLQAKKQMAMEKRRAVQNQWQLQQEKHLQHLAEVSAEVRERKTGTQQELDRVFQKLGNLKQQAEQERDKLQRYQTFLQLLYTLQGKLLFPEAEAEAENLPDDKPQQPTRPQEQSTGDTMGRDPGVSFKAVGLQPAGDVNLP

Test [1] has as its system Zinc finger BED domain-containing protein 1 (human).
Test [2] relates to Zinc finger and SCAN domain-containing protein 2 (human).
The test system of test [3] is Zinc finger protein 655 (human).
Test [4] has as its system Zinc finger protein castor homolog 1 (human).
Test [5] concerns Zinc transporter 7 (human).
Test [6] relates to cAMP-dependent protein kinase inhibitor gamma (human).

The list shows a part of the results. For some assays here: The exact form of the protein is not confirmed.

With “GGTGACAGGGGTATGGGGAGGGG [G4-2 biotinylated (Ct1)]”, the binding signal in the test with ZBTB25 (human) is -0.385 z-score; with ZBTB8OS (human), -0.399 z-score; in the test with ZMYM6 (human) it was -0.398 z-score; in the test on ZNF174 (human) it was -0.387 z-score; with ZNF3 (human), -0.395 z-score; in the test with ZNF333, -0.389 z-score. Further, the binding signal in the test with ZNF483 was -0.396 z-score; with ZNF616 (human), -0.387 z-score; with ZNF695 (human) it was -0.397 z-score; in the test with ZNF718 (human), -0.377 z-score; with ZNF765 (human), -0.375 z-score; with ZSCAN18 (human), -0.399 z-score. The binding signal with ZW10 is -0.372 z-score; with ZWINT, -0.385 z-score; in test [1] it was -0.396 z-score; in test [2] it was -0.386 z-score; in [3], -0.398 z-score; in [4], -0.403 z-score. In addition, the binding signal in test [5] is -0.366 z-score; in test [6], -0.403 z-score.
